Measured values reported in paper PMC11821008.
These are yes or no findings as the source states them, for the method shown. In cells and extracts the contact can be indirect. Some results given as binding are weak or reduced against the parent protein; the word gives no strength.

Target: sequestosome-1/p62 (human (endogenous in H460)) (UniProt Q13501)
Experiment: co-IP; H460 cells exposed to CK (30 µg/mL) for 12 h; 800 µg of lysate protein; IP with p62, ubiquitin (Ub) or mouse IgG antibodies, immunoblot for SIRT6 (n = 2)

For “Silent information regulator 6 (SIRT6) (from UniProt Q8N6T7 1-355)”, the binding was “binds”.
